Structures were worked out from names or drawings and are uncertain.
Assays:
[1] = biological target: p38 MAPKα isoform (MAPK14) (Homo sapiens, UniProt Q16539); test: p38 MAPKα enzyme inhibition (Z-LYTE FRET); assay type: biochemical; settings: read-out: p38 MAPKα (Enzyme Profile); Table 2B, unit inferred
p38MAPKγ (MAPK12) = p38MAPKγ (MAPK12) (Homo sapiens, UniProt P53778); test: p38 MAPKγ enzyme inhibition (Z-LYTE FRET); assay type: biochemical; settings: read-out: p38 MAPKγ (Enzyme Profile); Table 2B, unit inferred

By UniProt entry, the sequences of proteins in these tests, tags left out.
UniProt Q16539, whole entry: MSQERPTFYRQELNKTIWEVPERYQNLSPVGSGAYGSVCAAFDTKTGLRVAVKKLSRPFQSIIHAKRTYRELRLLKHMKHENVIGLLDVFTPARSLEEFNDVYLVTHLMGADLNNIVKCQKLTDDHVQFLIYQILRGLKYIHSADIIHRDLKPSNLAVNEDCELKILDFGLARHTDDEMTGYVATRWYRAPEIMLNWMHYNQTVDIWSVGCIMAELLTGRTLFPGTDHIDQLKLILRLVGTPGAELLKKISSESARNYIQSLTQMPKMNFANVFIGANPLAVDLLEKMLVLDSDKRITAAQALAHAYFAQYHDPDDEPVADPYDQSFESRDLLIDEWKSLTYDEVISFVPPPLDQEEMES
UniProt P53778, whole entry: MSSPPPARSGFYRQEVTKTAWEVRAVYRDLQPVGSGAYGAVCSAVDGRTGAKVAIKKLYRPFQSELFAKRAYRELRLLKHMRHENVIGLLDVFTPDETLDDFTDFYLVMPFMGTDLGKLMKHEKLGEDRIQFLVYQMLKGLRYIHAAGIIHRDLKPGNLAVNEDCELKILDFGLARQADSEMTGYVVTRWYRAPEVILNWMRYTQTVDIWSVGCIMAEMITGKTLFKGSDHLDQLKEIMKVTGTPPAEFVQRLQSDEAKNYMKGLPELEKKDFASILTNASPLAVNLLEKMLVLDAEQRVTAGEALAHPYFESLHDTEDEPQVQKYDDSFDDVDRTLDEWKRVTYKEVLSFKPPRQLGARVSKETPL

IC50 [1]: 0.023 µM
IC50 (p38MAPKγ (MAPK12)): 3.12 µM
Compound: Cc1ccc(-n2nc(C(C)(C)C)cc2NC(=O)Nc2ccc(OCc3ccnc(Nc4cnc(C(=O)N5CCCC5)cn4)c3)c3ccccc23)cc1 [Example 36]

Reference: patent US11142515B2, “Pyrazolyl-ureas as kinase inhibitors” (RESPIVERT LIMITED, priority 2014, dated 2021)
